Where two headings read alike, the source gives them in different places. Results are given in words; binding and its absence hold for the method and conditions named. Binding seen in cells or lysates may run through a third protein. These calls come from enrichment with a bait or labelling near it, and not all partners need be listed.
Key:
[1] = target: GFP-NuMA (Nuclear Mitotic Apparatus protein, full-length) (human) (UniProt Q14980); assay: affinity purification with mass spectrometry; HEK293T cells transfected with GFP-NuMA, IP with GFP-Trap beads, SDS-PAGE, trypsin digest, Q Exactive Plus
[2] = target: GFP-NuMA (Nuclear Mitotic Apparatus protein, full-length) (human) (UniProt Q14980); assay: as above; remark: listed apart in the source

The chains behind the UniProt entries cited, without tags or fusion partners.
UniProt Q14980: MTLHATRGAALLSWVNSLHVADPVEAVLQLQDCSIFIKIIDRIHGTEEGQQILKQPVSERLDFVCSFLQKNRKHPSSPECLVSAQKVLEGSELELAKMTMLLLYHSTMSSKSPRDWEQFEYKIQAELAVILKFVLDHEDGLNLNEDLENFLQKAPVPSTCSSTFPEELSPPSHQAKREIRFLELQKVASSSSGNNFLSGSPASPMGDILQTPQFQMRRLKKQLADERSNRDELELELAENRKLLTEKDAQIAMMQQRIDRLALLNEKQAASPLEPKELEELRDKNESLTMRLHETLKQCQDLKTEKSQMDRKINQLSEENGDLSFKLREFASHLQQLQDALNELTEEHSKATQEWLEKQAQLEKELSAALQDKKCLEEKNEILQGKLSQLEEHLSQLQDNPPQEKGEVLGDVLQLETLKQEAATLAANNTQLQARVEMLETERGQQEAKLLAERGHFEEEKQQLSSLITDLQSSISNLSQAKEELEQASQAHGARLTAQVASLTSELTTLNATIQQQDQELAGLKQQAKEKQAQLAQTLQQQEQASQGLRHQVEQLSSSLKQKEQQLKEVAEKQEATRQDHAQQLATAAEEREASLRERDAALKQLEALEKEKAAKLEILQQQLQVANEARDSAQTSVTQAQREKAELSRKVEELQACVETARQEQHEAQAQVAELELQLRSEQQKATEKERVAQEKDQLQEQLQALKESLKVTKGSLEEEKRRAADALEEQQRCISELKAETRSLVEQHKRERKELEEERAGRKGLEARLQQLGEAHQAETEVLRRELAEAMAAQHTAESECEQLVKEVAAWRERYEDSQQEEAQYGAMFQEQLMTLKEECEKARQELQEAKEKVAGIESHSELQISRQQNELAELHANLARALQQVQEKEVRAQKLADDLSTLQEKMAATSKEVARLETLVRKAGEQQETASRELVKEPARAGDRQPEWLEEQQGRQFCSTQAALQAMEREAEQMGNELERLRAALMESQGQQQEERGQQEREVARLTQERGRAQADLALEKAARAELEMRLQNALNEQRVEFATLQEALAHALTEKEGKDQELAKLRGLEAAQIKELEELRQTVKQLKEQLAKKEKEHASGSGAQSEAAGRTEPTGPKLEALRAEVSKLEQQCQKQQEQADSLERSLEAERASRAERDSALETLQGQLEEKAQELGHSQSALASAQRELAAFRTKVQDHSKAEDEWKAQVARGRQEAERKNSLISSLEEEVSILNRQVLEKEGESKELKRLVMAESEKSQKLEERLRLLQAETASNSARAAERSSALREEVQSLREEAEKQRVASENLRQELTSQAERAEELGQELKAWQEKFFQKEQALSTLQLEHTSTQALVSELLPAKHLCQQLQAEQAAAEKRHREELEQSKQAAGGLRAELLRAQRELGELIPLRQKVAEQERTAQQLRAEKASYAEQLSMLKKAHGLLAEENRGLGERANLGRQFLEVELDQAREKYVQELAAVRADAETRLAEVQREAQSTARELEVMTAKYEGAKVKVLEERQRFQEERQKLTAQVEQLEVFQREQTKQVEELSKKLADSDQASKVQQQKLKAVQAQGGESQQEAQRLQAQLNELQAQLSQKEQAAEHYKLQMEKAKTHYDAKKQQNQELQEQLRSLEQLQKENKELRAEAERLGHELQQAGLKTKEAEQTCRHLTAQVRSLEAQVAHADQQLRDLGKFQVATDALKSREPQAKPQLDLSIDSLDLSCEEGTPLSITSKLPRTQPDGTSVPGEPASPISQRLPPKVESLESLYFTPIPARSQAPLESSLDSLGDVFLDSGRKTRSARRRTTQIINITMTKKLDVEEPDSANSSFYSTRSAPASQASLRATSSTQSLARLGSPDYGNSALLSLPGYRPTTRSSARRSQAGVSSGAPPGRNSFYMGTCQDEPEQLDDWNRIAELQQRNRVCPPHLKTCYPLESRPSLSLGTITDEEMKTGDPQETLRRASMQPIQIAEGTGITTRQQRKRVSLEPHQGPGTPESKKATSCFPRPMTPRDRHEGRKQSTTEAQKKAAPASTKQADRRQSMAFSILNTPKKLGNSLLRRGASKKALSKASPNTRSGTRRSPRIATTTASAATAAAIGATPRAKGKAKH
UniProt O00139: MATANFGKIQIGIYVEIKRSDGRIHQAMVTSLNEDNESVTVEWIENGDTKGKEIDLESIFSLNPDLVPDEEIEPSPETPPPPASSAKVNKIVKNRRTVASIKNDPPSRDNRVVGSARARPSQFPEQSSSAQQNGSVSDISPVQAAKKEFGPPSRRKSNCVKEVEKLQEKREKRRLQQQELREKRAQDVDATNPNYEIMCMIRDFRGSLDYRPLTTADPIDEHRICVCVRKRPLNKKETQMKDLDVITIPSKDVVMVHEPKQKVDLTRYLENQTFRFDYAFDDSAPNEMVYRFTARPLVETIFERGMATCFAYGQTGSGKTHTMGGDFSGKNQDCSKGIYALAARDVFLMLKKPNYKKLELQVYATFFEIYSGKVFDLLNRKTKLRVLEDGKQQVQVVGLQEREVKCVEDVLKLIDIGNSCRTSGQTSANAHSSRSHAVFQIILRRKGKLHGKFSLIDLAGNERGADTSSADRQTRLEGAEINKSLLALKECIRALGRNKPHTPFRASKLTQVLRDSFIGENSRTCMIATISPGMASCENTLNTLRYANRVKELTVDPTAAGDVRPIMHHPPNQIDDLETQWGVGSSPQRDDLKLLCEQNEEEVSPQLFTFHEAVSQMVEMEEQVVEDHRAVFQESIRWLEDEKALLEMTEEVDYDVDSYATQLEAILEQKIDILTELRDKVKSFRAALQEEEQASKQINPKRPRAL

Row | binding [1] | binding [2] | Molecule
1 | binds | – | Kif2A (from UniProt O00139 1-706)
2 | – | binds | KifC1 (protein, UniProt Q9BW19 1-673) MDPQRSPLLEVKGNIELKRPLIKAPSQLPLSGSRLKRRPDQMEDGLEPEKKRTRGLGATTKITTSHPRVPSLTTVPQTQGQTTAQKVSKKTGPRCSTAIATGLKNQKPVPAVPVQKSGTSGVPPMAGGKKPSKRPAWDLKGQLCDLNAELKRCRERTQTLDQENQQLQDQLRDAQQQVKALGTERTTLEGHLAKVQAQAEQGQQELKNLRACVLELEERLSTQEGLVQELQKKQVELQEERRGLMSQLEEKERRLQTSEAALSSSQAEVASLRQETVAQAALLTEREERLHGLEMERRRLHNQLQELKGNIRVFCRVRPVLPGEPTPPPGLLLFPSGPGGPSDPPTRLSLSRSDERRGTLSGAPAPPTRHDFSFDRVFPPGSGQDEVFEEIAMLVQSALDGYPVCIFAYGQTGSGKTFTMEGGPGGDPQLEGLIPRALRHLFSVAQELSGQGWTYSFVASYVEIYNETVRDLLATGTRKGQGGECEIRRAGPGSEELTVTNARYVPVSCEKEVDALLHLARQNRAVARTAQNERSSRSHSVFQLQISGEHSSRGLQCGAPLSLVDLAGSERLDPGLALGPGERERLRETQAINSSLSTLGLVIMALSNKESHVPYRNSKLTYLLQNSLGGSAKMLMFVNISPLEENVSESLNSLRFASKVNQCVIGTAQANRK
